In the assay the test system is Aspergillus fumigatus. The format is cell-based.

This note sets out measurements from patent US6660263B2, “Oocydin and methods of use for protection of plants from Oomyocyte pathogens” (HMV Corporation, priority 2000, dated 2003).

As a reminder, the MIC is the least concentration at which growth counts as inhibited.

For `C[C@@H]1[C@H](O)[C@@H](C)/C=C/C=C/C=C/C=C/C=C/C=C/C=C/[C@H](O[C@@H]2O[C@H](C)[C@@H](O)[C@H](N)[C@@H]2O)C[C@@H]2O[C@](O)(C[C@@H](O)C[C@@H](O)[C@H](O)CC[C@@H](O)C[C@@H](O)CC(=O)O[C@H]1C)C[C@H](O)[C@H]2C(=O)O` [amphotericin B, reference compound], the MIC was less than 1.0 µg/mL.
